Experimental findings from PMC8514664 are described below.

Chains of the proteins cited; added tags and fusions are not shown. Lines headed by an entry give the natural chain unless they say otherwise; changes in a name come on top.
UniProt P67775: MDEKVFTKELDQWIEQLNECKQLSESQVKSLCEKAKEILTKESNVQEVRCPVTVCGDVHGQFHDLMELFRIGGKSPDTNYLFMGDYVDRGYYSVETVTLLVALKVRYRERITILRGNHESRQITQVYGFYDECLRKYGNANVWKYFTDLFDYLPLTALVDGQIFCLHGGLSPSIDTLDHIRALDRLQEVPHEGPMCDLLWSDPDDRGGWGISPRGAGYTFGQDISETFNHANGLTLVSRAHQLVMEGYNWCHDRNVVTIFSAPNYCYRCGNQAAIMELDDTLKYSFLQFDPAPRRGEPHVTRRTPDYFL
UniProt Q9Y281: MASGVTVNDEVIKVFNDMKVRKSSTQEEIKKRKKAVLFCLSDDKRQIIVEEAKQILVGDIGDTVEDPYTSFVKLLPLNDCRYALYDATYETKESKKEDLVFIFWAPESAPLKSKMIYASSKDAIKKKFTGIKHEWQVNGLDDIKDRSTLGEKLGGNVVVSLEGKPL

In test [1] the target is protein phosphatase 2 (PP2A) (human (endogenous in SK-N-SH APPwt)) (UniProt P67775). Put plainly: co-IP; lysate (around 500 ug) of P.g-LPS treated SK-N-SH APPwt cells, pre-cleared with control IgG; 2 ug anti-Cofilin 2 or anti-PP2A antibody, protein A/G PLUS-agarose, 4°C, washed five times with RIPA buffer; Western blot of the other protein; IgG control.
In test [2] the target is Cofilin 2 (human (endogenous in SK-N-SH APPwt)) (UniProt Q9Y281). The description is as above.

No constants are given. Whether binding was seen depends on the method and setting. Binding seen in cells or lysates may run through a third protein. Binding calls can cover weak binding; strength is not graded here.

Regarding Cofilin 2 (from UniProt Q9Y281 1-166), the binding result in test [1] is “binds”. As for “protein phosphatase 2 (PP2A) (from UniProt P67775) (enzyme)”, in test [2], the binding result is on record as “binds”.
